Test results reported in publication PMC8751585.
No constants are given. Whether binding was seen depends on the method and setting. In cells and extracts the contact can be indirect. Some entries that bind do so weakly or less than the wild type.

Sequences of proteins named here, by UniProt entry; tags and fusion partners are left off.
UniProt P51858: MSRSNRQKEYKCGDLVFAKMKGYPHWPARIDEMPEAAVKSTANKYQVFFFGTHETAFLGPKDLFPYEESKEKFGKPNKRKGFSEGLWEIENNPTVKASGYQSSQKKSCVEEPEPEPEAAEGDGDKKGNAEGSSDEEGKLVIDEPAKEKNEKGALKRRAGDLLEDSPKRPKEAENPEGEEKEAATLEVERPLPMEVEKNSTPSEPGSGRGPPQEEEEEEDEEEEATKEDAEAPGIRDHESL
UniProt P05412: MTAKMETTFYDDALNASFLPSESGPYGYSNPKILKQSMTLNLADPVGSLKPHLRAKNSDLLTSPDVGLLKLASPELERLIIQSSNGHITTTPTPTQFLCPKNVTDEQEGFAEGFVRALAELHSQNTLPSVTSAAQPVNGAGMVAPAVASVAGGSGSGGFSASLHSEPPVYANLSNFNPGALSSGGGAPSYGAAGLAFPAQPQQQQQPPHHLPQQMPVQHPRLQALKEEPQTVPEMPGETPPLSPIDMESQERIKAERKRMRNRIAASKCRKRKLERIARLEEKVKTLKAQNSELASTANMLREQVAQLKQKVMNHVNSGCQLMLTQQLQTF

Target: hepatoma-derived growth factor (HDGF) (human (endogenous in U87 and LN229)) (UniProt P51858)
Test: co-IP; endogenous proteins; U87 and LN229 cells lysed in Pierce IP Lysis buffer with protease and phosphatase inhibitors; Pierce co-IP kit; 10 ug anti-HDGF, anti-NAP1L1, anti-c-Jun or normal rabbit IgG with 5 mg protein overnight; western blot

c-Jun (from UniProt P05412 1-331)
binding: binds
